Test results published in PMC6796840.
Negatives hold for the conditions tested. For part of these data: At least one verdict rests on a figure or table, not on a statement of the authors. The exact form of at least one protein or probe is not confirmed.

Amino acid sequences for entries named in this document (tags omitted). A change or cut given only in a name is not applied to a line headed by its entry.
UniProt Q9STM3: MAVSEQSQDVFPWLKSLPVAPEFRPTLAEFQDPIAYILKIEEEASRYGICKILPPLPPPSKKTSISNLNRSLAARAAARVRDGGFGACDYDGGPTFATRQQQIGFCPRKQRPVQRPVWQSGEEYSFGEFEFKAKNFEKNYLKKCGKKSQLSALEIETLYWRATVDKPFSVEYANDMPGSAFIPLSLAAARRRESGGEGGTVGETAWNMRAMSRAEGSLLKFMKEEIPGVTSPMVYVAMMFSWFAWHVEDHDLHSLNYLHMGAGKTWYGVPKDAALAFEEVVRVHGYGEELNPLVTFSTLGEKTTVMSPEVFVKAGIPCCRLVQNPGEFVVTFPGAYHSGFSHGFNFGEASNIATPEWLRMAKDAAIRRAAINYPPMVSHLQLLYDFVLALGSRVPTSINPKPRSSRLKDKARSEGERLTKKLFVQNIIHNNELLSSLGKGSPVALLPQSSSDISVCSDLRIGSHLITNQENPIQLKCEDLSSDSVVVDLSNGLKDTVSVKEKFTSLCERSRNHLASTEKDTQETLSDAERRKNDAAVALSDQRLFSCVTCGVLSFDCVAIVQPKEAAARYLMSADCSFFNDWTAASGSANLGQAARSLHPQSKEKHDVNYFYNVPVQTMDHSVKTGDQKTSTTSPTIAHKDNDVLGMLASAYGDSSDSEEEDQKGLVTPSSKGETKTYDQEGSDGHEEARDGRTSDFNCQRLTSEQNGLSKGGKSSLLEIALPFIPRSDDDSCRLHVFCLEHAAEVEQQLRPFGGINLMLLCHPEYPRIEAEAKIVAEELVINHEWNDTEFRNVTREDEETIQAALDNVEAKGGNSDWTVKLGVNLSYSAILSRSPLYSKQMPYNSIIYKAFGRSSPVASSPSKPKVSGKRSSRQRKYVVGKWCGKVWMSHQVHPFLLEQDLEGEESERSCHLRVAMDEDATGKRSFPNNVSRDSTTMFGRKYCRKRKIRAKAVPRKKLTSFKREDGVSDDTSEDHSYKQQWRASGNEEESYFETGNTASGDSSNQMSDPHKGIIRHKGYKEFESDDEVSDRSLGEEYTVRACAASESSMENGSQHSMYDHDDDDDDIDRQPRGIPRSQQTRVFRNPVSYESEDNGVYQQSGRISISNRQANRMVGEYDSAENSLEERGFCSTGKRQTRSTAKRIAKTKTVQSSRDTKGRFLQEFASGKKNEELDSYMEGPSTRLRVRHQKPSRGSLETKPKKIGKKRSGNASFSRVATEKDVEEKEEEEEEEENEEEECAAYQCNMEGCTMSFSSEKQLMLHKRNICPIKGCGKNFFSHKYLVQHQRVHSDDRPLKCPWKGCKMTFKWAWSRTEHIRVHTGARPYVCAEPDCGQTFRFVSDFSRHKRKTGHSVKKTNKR
UniProt O80982: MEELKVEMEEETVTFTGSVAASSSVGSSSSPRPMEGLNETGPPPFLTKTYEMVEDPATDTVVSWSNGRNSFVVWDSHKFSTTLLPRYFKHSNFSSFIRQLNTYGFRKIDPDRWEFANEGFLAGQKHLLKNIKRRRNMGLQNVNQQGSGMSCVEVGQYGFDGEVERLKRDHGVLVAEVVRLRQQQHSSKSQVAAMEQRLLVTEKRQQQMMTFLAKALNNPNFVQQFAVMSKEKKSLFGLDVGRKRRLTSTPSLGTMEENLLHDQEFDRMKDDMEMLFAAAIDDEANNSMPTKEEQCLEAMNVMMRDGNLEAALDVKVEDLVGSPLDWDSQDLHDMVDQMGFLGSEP

Biological target: GST-REF6C (UniProt Q9STM3)
Assay: EMSA
Conditions: 1 uM ZnSO4, HSFA2: 10 mM Tris-HCl pH 7.6, 25 mM KCl, 2.5 mM MgCl2, 1 mM EDTA, 1 mM DTT, 10% glycerol, 25 C 30 min, REF6C: 25 mM Tris-HCl pH 8.0, 100 mM NaCl, recombinant protein, protein details: GST, label: Cy5 end

| Sequence | binding result |
| --- | --- |
| AGCCAGTGGCGATAAGCTCTGTTCAATCCTCTGTTTCTTATCGCCACTGGCT (double strand) [HSFA2-REF6-WT] | binds |
| AGCCAGTGGCGATAAGCTAAGTTCAATCCTAAGTTTCTTATCGCCACTGGCT (double strand) [HSFA2-REF6-mu] | no binding |

Biological target: His-HSFA2 (UniProt O80982)
Assay: EMSA
Conditions: HSFA2: 10 mM Tris-HCl pH 7.6, 25 mM KCl, 2.5 mM MgCl2, 1 mM EDTA, 1 mM DTT, 10% glycerol, 25 C 30 min, REF6C: 25 mM Tris-HCl pH 8.0, 100 mM NaCl, recombinant protein, residues 1-345, label: Cy5 end

| Sequence | binding result |
| --- | --- |
| AGCCAGTGGCGATAAGATTGGAATTCCCAAACGCGACTTATCGCCACTGGCT (double strand) [SGIP1-HSE-P2] | binds |
| AGCCAGTGGCGATAAGGAAGGTCCTTCACACGCGCCTCCCTTATCGCCACTGGCT (double strand) [SGIP1-HSE-P3] | binds |
| AGCCAGTGGCGATAAGCGTCGTTTTTTTCGAGGAAAAGTGAATGCTTATCGCCACTGGCT (double strand) [REF6-HSE-P2] | no binding |
| AGCCAGTGGCGATAAGAAATTCTTGTGGAACATGAACTTATCGCCACTGGCT (double strand) [SGIP1-HSE-P1] | binds |
